Test results from patent US8618097B2, “Pyrimidyl cyclopentanes as AKT protein kinase inhibitors” (Array Biopharma, Inc., priority 2007, dated 2013).
Where a name gives a salt, the structure may show the parent alone. Some of these results come from one statement about several compounds together.

Sequences of proteins named here, by UniProt entry; tags and fusion partners are left off. A change or cut given only in a name is not applied to a line headed by its entry.
UniProt P31749: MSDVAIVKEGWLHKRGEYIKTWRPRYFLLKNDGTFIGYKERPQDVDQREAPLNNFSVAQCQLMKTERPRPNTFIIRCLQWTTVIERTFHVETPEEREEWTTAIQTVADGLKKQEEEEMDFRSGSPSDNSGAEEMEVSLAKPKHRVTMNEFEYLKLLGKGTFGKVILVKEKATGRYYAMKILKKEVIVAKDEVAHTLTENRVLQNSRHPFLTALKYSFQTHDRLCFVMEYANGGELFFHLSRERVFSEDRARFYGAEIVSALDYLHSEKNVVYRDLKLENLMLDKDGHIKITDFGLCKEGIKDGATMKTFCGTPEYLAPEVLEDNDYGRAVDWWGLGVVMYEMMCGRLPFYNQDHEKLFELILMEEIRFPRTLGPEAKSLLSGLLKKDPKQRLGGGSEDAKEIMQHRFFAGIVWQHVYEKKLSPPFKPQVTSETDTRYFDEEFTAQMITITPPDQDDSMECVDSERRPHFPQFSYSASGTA

Molecular target: full-length human recombinant active AKT-1 (Homo sapiens, UniProt P31749)
Experiment: AKT-1 Kinase Assay (IMAP fluorescence polarization)
Format: biochemical
Settings: phosphorylation of fluorescently-labeled peptide (Crosstide) by AKT-1, fluorescent polarization, IMAP kit

Row | Compound | IC50
1 | C[C@@H]1C[C@@](C)(O)c2ncnc(N3CCN(C(=O)[C@@H](c4ccc(C(F)(F)F)cc4)[C@@H]4CCC(C)(C)N4)CC3)c21 [Example 90, (S)-2-((S)-5,5-dimethylpyrrolidin-2-yl)-1-(4-((5R,7R)-7-hydroxy-5,7-dimethyl-6,7-dihydro-5H-cyclopenta[d]pyrimidin-4-yl)piperazin-1-yl)-2-(4-(trifluoromethyl)phenyl)ethanone] | < 1 µM
2 | C[C@@H]1C[C@@](C)(O)c2ncnc(N3CCN(C(=O)[C@@H](c4ccc(C(F)(F)F)c(F)c4)[C@@H]4CCC(C)(C)N4)CC3)c21 [Example 91, (S)-2-((S)-5,5-dimethylpyrrolidin-2-yl)-2-(3-fluoro-4-(trifluoromethyl)phenyl)-1-(4-((5R,7R)-7-hydroxy-5,7-dimethyl-6,7-dihydro-5H-cyclopenta[d]pyrimidin-4-yl)piperazin-1-yl)ethanone] | < 1 µM
3 | C[C@@H]1C[C@@H](O)c2ncnc(N3CCN(C(=O)[C@@H](c4ccc(S(C)(=O)=O)cc4)[C@@H]4CCCN4)CC3)c21 [Example 92, (S)-1-(4-((5R,7R)-7-hydroxy-5-methyl-6,7-dihydro-5H-cyclopenta[d]pyrimidin-4-yl)piperazin-1-yl)-2-(4-(methylsulfonyl)phenyl)-2-((S)-pyrrolidin-2-yl)ethanone] | < 1 µM
4 | C[C@@H]1C[C@@H](O)c2ncnc(N3CCN(C(=O)[C@@H](c4ccc(S(C)(=O)=O)cc4)[C@@H]4CCCN4C)CC3)c21 [Example 93, (S)-1-(4-((5R,7R)-7-hydroxy-5-methyl-6,7-dihydro-5H-cyclopenta[d]pyrimidin-4-yl)piperazin-1-yl)-2-((S)-1-methylpyrrolidin-2-yl)-2-(4-(methylsulfonyl)phenyl)ethanone] | < 1 µM
5 | C[C@@H]1C[C@@](C)(O)c2ncnc(N3CCN(C(=O)[C@@H](c4ccc(Cl)c(F)c4)[C@@H]4CCC(C)(C)N4)CC3)c21 [Example 94, (S)-2-(4-chloro-3-fluorophenyl)-2-((S)-5,5-dimethylpyrrolidin-2-yl)-1-(4-((5R,7R)-7-hydroxy-5,7-dimethyl-6,7-dihydro-5H-cyclopenta[d]pyrimidin-4-yl)piperazin-1-yl)ethanone] | < 1 µM
6 | C[C@@H]1C[C@@](C)(O)c2ncnc(N3CCN(C(=O)[C@@H](c4ccc(Br)cc4)[C@@H]4CCC(C)(C)N4)CC3)c21 [Example 95, (S)-2-(4-bromophenyl)-2-((S)-5,5-dimethylpyrrolidin-2-yl)-1-(4-((5R,7R)-7-hydroxy-5,7-dimethyl-6,7-dihydro-5H-cyclopenta[d]pyrimidin-4-yl)piperazin-1-yl)ethanone] | < 1 µM
7 | C[C@@H]1C[C@@H](O)c2ncnc(N3CCN(C(=O)[C@@H](c4ccc(C#N)c(F)c4)[C@@H]4CCC(C)(C)N4)CC3)c21 [Example 96, 4-((S)-1-((S)-5,5-dimethylpyrrolidin-2-yl)-2-(4-((5R,7R)-7-hydroxy-5-methyl-6,7-dihydro-5H-cyclopenta[d]pyrimidin-4-yl)piperazin-1-yl)-2-oxoethyl)-2-fluorobenzonitrile] | < 1 µM
8 | C[C@@H]1C[C@@H](O)c2ncnc(N3CCN(C(=O)[C@@H](c4ccc(Cl)cc4)[C@@H]4COCCN4C)CC3)c21 [Example 98, (S)-2-(4-chlorophenyl)-1-(4-((5R,7R)-7-hydroxy-5-methyl-6,7-dihydro-5H-cyclopenta[d]pyrimidin-4-yl)piperazin-1-yl)-2-((R)-4-methylmorpholin-3-yl)ethanone] | < 1 µM
9 | C[C@@H]1C[C@H](O)c2ncnc(N3CCN(C(=O)[C@@H](c4ccc(Cl)cc4)[C@@H]4COCCN4C)CC3)c21 [Example 99, (S)-2-(4-chlorophenyl)-1-(4-((5R,7S)-7-hydroxy-5-methyl-6,7-dihydro-5H-cyclopenta[d]pyrimidin-4-yl)piperazin-1-yl)-2-((R)-4-methylmorpholin-3-yl)ethanone] | < 1 µM
10 | C[C@@H]1C[C@@H](O)c2ncnc(N3CCN(C(=O)[C@@H](c4cc(F)c(Cl)cc4F)[C@@H]4CCC(C)(C)N4)CC3)c21 [Example 101, (S)-2-(4-chloro-2,5-difluorophenyl)-2-((S)-5,5-dimethylpyrrolidin-2-yl)-1-(4-((5R,7R)-7-hydroxy-5-methyl-6,7-dihydro-5H-cyclopenta[d]pyrimidin-4-yl)piperazin-1-yl)ethanone] | < 1 µM
11 | C[C@@H]1C[C@@H](O)c2ncnc(N3CCN(C(=O)[C@@H](c4ccc(Cl)cc4F)[C@@H]4CCC(C)(C)N4)CC3)c21 [Example 102, (S)-2-(4-chloro-2-fluorophenyl)-2-((S)-5,5-dimethylpyrrolidin-2-yl)-1-(4-((5R,7R)-7-hydroxy-5-methyl-6,7-dihydro-5H-cyclopenta[d]pyrimidin-4-yl)piperazin-1-yl)ethanone] | < 1 µM
12 | C[C@@H]1C[C@@H](O)c2ncnc(N3CCN(C(=O)[C@@H](c4ccc(Br)cc4F)[C@@H]4CCC(C)(C)N4)CC3)c21 [Example 103, (S)-2-(4-bromo-2-fluorophenyl)-2-((S)-5,5-dimethylpyrrolidin-2-yl)-1-(4-((5R,7R)-7-hydroxy-5-methyl-6,7-dihydro-5H-cyclopenta[d]pyrimidin-4-yl)piperazin-1-yl)ethanone] | < 1 µM
13 | C[C@@H]1C[C@@H](O)c2ncnc(N3CCN(C(=O)[C@@H](c4ccc(Br)c(F)c4)[C@@H]4CCC(C)(C)N4)CC3)c21 [Example 104, (S)-2-(4-bromo-3-fluorophenyl)-2-((S)-5,5-dimethylpyrrolidin-2-yl)-1-(4-((5R,7R)-7-hydroxy-5-methyl-6,7-dihydro-5H-cyclopenta[d]pyrimidin-4-yl)piperazin-1-yl)ethanone] | < 1 µM
14 | C[C@@H]1C[C@@H](O)c2ncnc(N3CCN(C(=O)[C@@H](c4cccc(Cl)c4)[C@@H]4CCC(C)(C)N4)CC3)c21 [Example 105, (S)-2-(3-chlorophenyl)-2-((S)-5,5-dimethylpyrrolidin-2-yl)-1-(4-((5R,7R)-7-hydroxy-5-methyl-6,7-dihydro-5H-cyclopenta[d]pyrimidin-4-yl)piperazin-1-yl)ethanone] | < 1 µM
15 | C[C@@H]1C[C@@](C)(O)c2ncnc(N3CCN(C(=O)[C@@H](c4ccc(Cl)cc4F)[C@@H]4CCC(C)(C)N4)CC3)c21 [Example 107, (S)-2-(4-chloro-2-fluorophenyl)-2-((S)-5,5-dimethylpyrrolidin-2-yl)-1-(4-((5R,7R)-7-hydroxy-5,7-dimethyl-6,7-dihydro-5H-cyclopenta[d]pyrimidin-4-yl)piperazin-1-yl)ethanone dihydrochloride] | < 1 µM
16 | C[C@@H]1C[C@H](F)c2ncnc(N3CCN(C(=O)[C@@H](c4ccc(Cl)cc4F)[C@@H]4CCC(C)(C)N4)CC3)c21 [Example 108, (S)-2-(4-chloro-2-fluorophenyl)-2-((S)-5,5-dimethylpyrrolidin-2-yl)-1-(4-((5R,7S)-7-fluoro-5-methyl-6,7-dihydro-5H-cyclopenta[d]pyrimidin-4-yl)piperazin-1-yl)ethanone dihydrochloride] | < 1 µM
17 | Cc1ccc([C@H](C(=O)N2CCN(c3ncnc4c3[C@H](C)C[C@H]4O)CC2)[C@@H]2CCC(C)(C)N2)c(F)c1 [Example 109, (S)-2-((S)-5,5-dimethylpyrrolidin-2-yl)-2-(2-fluoro-4-methylphenyl)-1-(4-((5R,7R)-7-hydroxy-5-methyl-6,7-dihydro-5H-cyclopenta[d]pyrimidin-4-yl)piperazin-1-yl)ethanone dihydrochloride] | < 1 µM
18 | C[C@@H]1C[C@@H](O)c2ncnc(N3CCN(C(=O)[C@@H](c4ccc(Cl)cc4Cl)[C@@H]4CCC(C)(C)N4)CC3)c21 [Example 110, (S)-2-(2,4-dichlorophenyl)-2-((S)-5,5-dimethylpyrrolidin-2-yl)-1-(4-((5R,7R)-7-hydroxy-5-methyl-6,7-dihydro-5H-cyclopenta[d]pyrimidin-4-yl)piperazin-1-yl)ethanone dihydrochloride] | < 1 µM
19 | C[C@@H]1C[C@@H](O)c2ncnc(N3CCN(C(=O)[C@@H](c4ccc5ccccc5c4)[C@@H]4CCC(C)(C)N4)CC3)c21 [Example 111, (S)-2-((S)-5,5-dimethylpyrrolidin-2-yl)-1-(4-((5R,7R)-7-hydroxy-5-methyl-6,7-dihydro-5H-cyclopenta[d]pyrimidin-4-yl)piperazin-1-yl)-2-(naphthalen-2-yl)ethanone dihydrochloride] | < 1 µM
20 | C[C@@H]1CCc2ncnc(N3CCN(C(=O)[C@@H](c4ccc5ccccc5c4)[C@@H]4CCC(C)(C)N4)CC3)c21 [Example 112, (S)-2-((S)-5,5-dimethylpyrrolidin-2-yl)-1-(4-((R)-5-methyl-6,7-dihydro-5H-cyclopenta[d]pyrimidin-4-yl)piperazin-1-yl)-2-(naphthalen-2-yl)ethanone dihydrochloride] | < 1 µM
21 | C[C@@H]1C[C@@H](O)c2ncnc(N3CCN(C(=O)[C@@H](c4cccc5ccccc45)[C@@H]4CCC(C)(C)N4)CC3)c21 [Example 113, (S)-2-((S)-5,5-dimethylpyrrolidin-2-yl)-1-(4-((5R,7R)-7-hydroxy-5-methyl-6,7-dihydro-5H-cyclopenta[d]pyrimidin-4-yl)piperazin-1-yl)-2-(naphthalen-1-yl)ethanone dihydrochloride] | < 1 µM
22 | C[C@@H]1CCc2ncnc(N3CCN(C(=O)[C@@H](c4cccc5ccccc45)[C@@H]4CCC(C)(C)N4)CC3)c21 [Example 114, (S)-2-((S)-5,5-dimethylpyrrolidin-2-yl)-1-(4-((R)-5-methyl-6,7-dihydro-5H-cyclopenta[d]pyrimidin-4-yl)piperazin-1-yl)-2-(naphthalen-1-yl)ethanone dihydrochloride] | < 1 µM
23 | C[C@@H]1C[C@@H](O)c2ncnc(N3CCN(C(=O)[C@@H](c4ccc(Cl)c(Cl)c4)[C@@H]4CCC(C)(C)N4)CC3)c21 [Example 115, (S)-2-(3,4-dichlorophenyl)-2-((S)-5,5-dimethylpyrrolidin-2-yl)-1-(4-((5R,7R)-7-hydroxy-5-methyl-6,7-dihydro-5H-cyclopenta[d]pyrimidin-4-yl)piperazin-1-yl)ethanone dihydrochloride] | < 1 µM
